# PubChem BioAssay AID504793, Drosophila RNAi Screening Center, 2011
# Assay: 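Whole-genome screen for parts of the DNA damage checkpoint at G2/M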 (primary screen)
# Cell system: Drosophila S2R+ cells
# Knock-down reagent: long dsRNA against Drosophila genes, about 0.25 µg dsRNA per well
# Timing: 4 days of dsRNA, then 4 hours of drug before read-out
# Treatment: doxorubicin 0.5 µM for 4 hours to cause double-strand breaks, in cells also given a low, harmless dose of dsRNA against nbs to sensitise the assay
# Measured: 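Mitotic index as the number of phospho-histone H3-positive cells in each well following doxorubicin, given as raw counts without normalisation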
# Direction: mitotic cells: higher = more cells in mitosis, weaker G2 arrest
# Call rule: 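a call needs confirmation in secondary tests, with other dsRNAs and a check of mitotic timing without damage, not just a high primary count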
# Meaning of the calls: active = confirmed in follow-up tests; inactive = not confirmed
# In all, the deposit lists about 23,000 reagents; below is a random part of those with a known target gene and a result. Of all reagents, 62 (0.27%) were called active. 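Calls come from follow-up tests whose scores are not deposited, so confirmed genes may have low counts here; counts are not normalised per plate.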 The raw values are shown without normalisation. Names joined by + are all predicted targets of the reagent. No sequences are given here.
predicted target,DRSC id,"mitotic cells, replicate 1",Outcome
Trxr1,DRSC18668,11,inactive
Trxr1,DRSC22293,10,inactive
Trxr1,DRSC25749,47,inactive
CG7953,DRSC01902,3,inactive
Cyp4p2,DRSC07373,10,inactive
Cyp4p2,DRSC26900,2,inactive
Gr59c,DRSC04185,2,inactive
CG31637,DRSC02270,12,inactive
CG31637,DRSC03263,6,inactive
CG31637,DRSC25193,8,inactive
CG2017,DRSC12293,6,inactive
Rpt3R,DRSC16501,7,inactive
Rpt3R,DRSC25067,11,inactive
CG5104,DRSC11765,4,inactive
pre-mod(mdg4)-W + pre-mod(mdg4)-Y + mod(mdg4) + 3 more,DRSC16328,7,inactive
Cad96Cb,DRSC14243,10,inactive
Cad96Cb,DRSC14665,13,inactive
Cad96Cb,DRSC28720,,inactive
ZnT77C,DRSC11766,1,inactive
ZnT77C,DRSC11767,2,inactive
CG15362,DRSC00392,4,inactive
CR18228,DRSC15317,4,inactive
pbl,DRSC11381,8,inactive
pbl,DRSC26301,6,inactive
CG14718,DRSC14941,7,inactive
CG5853,DRSC01103,16,inactive
CG5853,DRSC02906,3,inactive
CG5326,DRSC13568,17,inactive
CG5326,DRSC15770,2,inactive
CG5326,DRSC23719,1,inactive
Lsm11,DRSC06238,6,inactive
CG34433,DRSC15077,12,inactive
CG3732,DRSC04410,5,inactive
CG3732,DRSC25057,6,inactive
mip40,DRSC06541,5,inactive
CG31775 + CG42586,DRSC23266,2,inactive
eIF3d1,DRSC16938,7,inactive
CG9265,DRSC03178,6,inactive
CG9265,DRSC03179,5,inactive
CG33467,DRSC05525,3,inactive
CG33467,DRSC22651,9,inactive
CG13131,DRSC23253,12,inactive
CG32277,DRSC08196,7,inactive
CG31933,DRSC00457,9,inactive
tin,DRSC17083,13,inactive
tin,DRSC23248,5,inactive
tin,DRSC28260,4,inactive
CG2652,DRSC18501,4,inactive
CG2652,DRSC22576,11,inactive
CG2652,DRSC27496,7,inactive
Arr2,DRSC09670,3,inactive
Frmd5,DRSC02802,2,inactive
CG7208,DRSC16212,5,inactive
CG7208,DRSC26213,8,inactive
AhcyL2,DRSC14107,4,inactive
CG32845,DRSC07867,6,inactive
CG32845,DRSC28003,9,inactive
CG4619,DRSC02764,3,inactive
dgt4,DRSC18659,81,inactive
dgt4,DRSC28573,19,inactive
dom,DRSC04558,11,inactive
dom,DRSC04559,4,inactive
dom,DRSC29669,6,inactive
Ser,DRSC16856,8,inactive
Ser,DRSC25494,6,inactive
Sec71,DRSC01893,3,inactive
CG2962,DRSC18247,9,inactive
CG2962,DRSC27023,5,inactive
Mipp2,DRSC18682,8,inactive
CG15211,DRSC19657,8,inactive
elm,DRSC12309,7,inactive
Lrp4,DRSC20118,6,inactive
Src42A,DRSC04915,6,inactive
Src42A,DRSC36641,10,inactive
CG4815,DRSC15653,14,inactive

Part of the list above, set out differently.
CG7208 [DRSC16212]
- mitotic cells, replicate 1: 5
- Outcome: inactive

CG7208 [DRSC26213]
- mitotic cells, replicate 1: 8
- Outcome: inactive

AhcyL2 [DRSC14107]
- mitotic cells, replicate 1: 4
- Outcome: inactive
